Reference: patent publication US20250042994A1
Results are given in words; binding and its absence hold for the method and conditions named. For some assays here: A result given as binding can be weak or reduced; the word gives no strength.

B1: F3.121.4-L1H1 (antibody, mouse IgG1, kappa, V domains shown)
VH: EVQLVQSGAEVKKPGASVKVSCKASGYTFTNYWMHWVRQAPGQRLEWMGEIDPSDNYANYNQEFQGRVTITVDKSASTAYMELSSLRSEDTAVYYCARHDGYFGALDYWGQGTTVTVSS
VL: EIVLTQSPATLSLSPGERATLSCSASSSISSNYLHWYQQKPGQAPRFLIYRTSNLASGIPARFSGSGSGTDFTLTISSLEPEDFAVYYCQQASSIPRMFTFGQGTKLEIKR
B2: F3.121.4-L1H2 (antibody, mouse IgG1, kappa, V domains shown)
VH: EVQLVQSGAEVKKPGASVKVSCKASGYTFTNYWMHWVRQAPGQGLEWMGEIDPSDNYANYNQEFQGRVTITVDKSASTAYMELSSLRSEDTAVYYCARHDGYFGALDYWGQGTTVTVSS
VL: EIVLTQSPATLSLSPGERATLSCSASSSISSNYLHWYQQKPGQAPRFLIYRTSNLASGIPARFSGSGSGTDFTLTISSLEPEDFAVYYCQQASSIPRMFTFGQGTKLEIKR
B3: F3.121.4-L2H1 (antibody, mouse IgG1, kappa, V domains shown)
VH: EVQLVQSGAEVKKPGASVKVSCKASGYTFTNYWMHWVRQAPGQRLEWMGEIDPSDNYANYNQEFQGRVTITVDKSASTAYMELSSLRSEDTAVYYCARHDGYFGALDYWGQGTTVTVSS
VL: EIVLTQSPDFQSVTPKEKVTITCSASSSISSNYLHWYQQKPDQSPKLLIKRTSNLASGVPSRFSGSGSGTDFTLTINSLEAEDAATYYCQQASSIPRMFTFGQGTKLEIKR
B4: F3.121.4-L2H2 (antibody, mouse IgG1, kappa, V domains shown)
VH: EVQLVQSGAEVKKPGASVKVSCKASGYTFTNYWMHWVRQAPGQGLEWMGEIDPSDNYANYNQEFQGRVTITVDKSASTAYMELSSLRSEDTAVYYCARHDGYFGALDYWGQGTTVTVSS
VL: EIVLTQSPDFQSVTPKEKVTITCSASSSISSNYLHWYQQKPDQSPKLLIKRTSNLASGVPSRFSGSGSGTDFTLTINSLEAEDAATYYCQQASSIPRMFTFGQGTKLEIKR
B5: F3.121.4-L3H1 (antibody, mouse IgG1, kappa, V domains shown)
VH: EVQLVQSGAEVKKPGASVKVSCKASGYTFTNYWMHWVRQAPGQRLEWMGEIDPSDNYANYNQEFQGRVTITVDKSASTAYMELSSLRSEDTAVYYCARHDGYFGALDYWGQGTTVTVSS
VL: EIVLTQSPDFQSVTPKEKVTITCSASSSISSNYLHWYQQKPDQSPKFLIYRTSNLASGVPSRFSGSGSGTDFTLTINSLEAEDAATYYCQQASSIPRMFTFGQGTKLEIKR
B6: F3.121.4-L3H2 (antibody, mouse IgG1, kappa, V domains shown)
VH: EVQLVQSGAEVKKPGASVKVSCKASGYTFTNYWMHWVRQAPGQGLEWMGEIDPSDNYANYNQEFQGRVTITVDKSASTAYMELSSLRSEDTAVYYCARHDGYFGALDYWGQGTTVTVSS
VL: EIVLTQSPDFQSVTPKEKVTITCSASSSISSNYLHWYQQKPDQSPKFLIYRTSNLASGVPSRFSGSGSGTDFTLTINSLEAEDAATYYCQQASSIPRMFTFGQGTKLEIKR
B7: F5.11.2 (antibody, human IgG1, V domains shown)
VH: EVQLVESGGDLVKPGGSLKLSCAASGFTFSSYGMSWVRQTPDKRLEWVATISHGGSYTHYPDSVKGRFTISRDNAKNTLYLQMNSLKSEDTAMYYCVRLPITTVEAPYFFDYWGQGTTLTVSS
VL: DIQMTQTTSSLSASLGDRVTISCRASQDIRNYLNWYQQKPDGTVKLLIYYTSILHSGVPSRFSGSGSGTDYSLTINNLEQEDVATYFCQQGNTLYTFGGGTEVELR
B8: F3.124.7 (antibody, human IgG1, V domains shown)
VH: EVQLQQSGPVLVKPGASVKMSCKASGYTFTDYYMNWVKQRHGKSLEWIGISNPYNGGTSYNQKFKDKATLTVDKSSSTAYMELNSLTSEDSAVYYCAREGGTAQPTSGMDYWGQGTSVTVSS
VL: NIMMTQSPSSLAVSAGEKVTMSCKSSQSVLYSSNQKNYLAWYQQKPGQSPKLLIYWASTRESGVPDRFTGSGSGTDFTLTISSVQPEDPAVYYCHQYRSSYTFGGGTKLEIK

target: monkey CD19 protein (monkey); assay: ELISA

Binder | binding
B1 | no binding
B2 | no binding
B3 | no binding
B4 | no binding
B5 | no binding
B6 | no binding

target: monkey CD19 protein (monkey); assay: ELISA, coated monkey CD19

Binder | binding
B7 | binds
B8 | binds
